Screen size: about 53,000 sequences; about 3,700 (7%) were called active.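 Rule for the calls: active = gene knockdowns whose robust z-score for IL-1 alpha signal is at least 2 or at most -2, so actives lie on both sides; inactive = the rest.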 The list shows a part of the results.
Experiment: Components of the Cytosolic LPS Sensing Pathway: Gene Identification via Genome-wide siRNA Screen;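 note: robust z of the log signal after scaling to non-targeting control siRNA wells of the plate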
Conditions: RAW264.7 macrophages, IL-1a HTRF, actives lie on both sides, screened at 100 nM (by protocol), cells primed 5 h with Pam3CSK4 first
Procedure, shortened: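 RAW264.7 mouse macrophages reverse-transfected with single siRNAs (100 nM final) for 48h, primed with Pam3CSK4 for 5 hours, then transfected with LipidA for 24 hour. Supernatant IL-1a read by HTRF; values normalized to negative-control median, log-transformed robust z-scores.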

Sequence | z-score
GGAACAAGAACUUUCUAAGTT against Golim4 | inactive: 0.83
GGCAAAUGUAAAGUUAGGUTT against Zfp24 | inactive: 0.768
GGACCGUGUCUCUGGAAAATT against Gpx8 | inactive: -0.00687
CCCAUCUCGAAUGAAAGCCTT against Clec3a | inactive: -1.36
CGGGUUGAAAGCUCAGUAATT against Amer3 | inactive: -1.63
GGACACAGACAUCCUCUUGTT against Sult5a1 | inactive: 1.04
GCUUACCUGCUGUCUUAAUTT against F630003A18Rik | inactive: 0.42
GCGCAUUCUGCAUCAUGCUTT against Chil3 | inactive: -0.0254
GCUGCUCGAUUGCUUUCCATT against 4930429B21Rik | inactive: 0.411
GCCCAAAUAGAGGAGGCUUTT against Aqp1 | inactive: -0.691
GGUGGUACAGGUCUUCUCCTT against Ap1m1 | inactive: -1.32
CCCAUCCAUACAAAAAUGATT against Polm | inactive: -1.73
CGUAAUCCUGACUUUUUGATT against Adam9 | inactive: 1.39
GCAAUGGUCCCACUGUCAGTT against Nrip1 | inactive: -0.356
GCAGUAGCCGGAAGAUAACTT against Itln1 | inactive: 1.34
GGAAACAAUACACCAAAUGTT against Bmt2 | inactive: 1.47
GGCAUACUGGUUAAUCUCATT against Arl6 | inactive: -0.306
GGGCCUUUAGUCCUCAAAGTT against Psmg3 | inactive: 0.387
GGUGUUUGAGAUCAGCUGCTT against Trib2 | inactive: 0.0959
GGAUGAAACUUUCAGUUGCTT against Cenph | inactive: 0.381
GGAGAAAGUUUUGGAAAAATT against Slc24a5 | inactive: -0.622
CGAUUCUGUAUCCAGUUGGTT against Olfr488 | inactive: -0.281
GCUUCUAAAAGAGUUGACATT against Mgat4a | inactive: -0.0407

Sequence | z-score
GGCACAUGGAGUGGACAAGTT against Blvrb | active: 3.2
CCAUGUCUGUAUCCGCAUUTT against 1700001J03Rik | inactive: 1.38
GUACACAAGCCCUGUUUACTT against Hoxa6 | inactive: -0.89
GGAAACAGAAGGAAUACUUTT against Tbc1d22a | inactive: -0.333
CCACUUAUGGGCCUACAAATT against Nipsnap1 | inactive: 0.826
CGGCAAGUAUGAUCUGGACTT against Eno3 | inactive: 1.69
GCCGCUUAUAUGUAUCGCUTT against Adipoq | active: 2.54
GGUUUAGGCAACUAAGUUGTT against Stat5a | inactive: 0.426
GGCGAGAAGAGGUGAAUCATT against Nrbp1 | inactive: 1.92
GGUGUUCCAGUUACCUGAGTT against Klhl26 | inactive: -0.0813
CGAUGCUGACUGAGAUCAUTT against Rad23a | inactive: 1.39
GCACUAAUACUAACCAUGGTT against Rhox12 | inactive: 0.788
CCACUCAAGACCAAAUGGATT against Arx | inactive: -0.147
GGAAAGUAUGGUGGCUUCGTT against Olfr859 | inactive: 0.159
GGCUCAUUUAAAACAAGCATT against Cdh11 | inactive: -0.259
GGGUACACAACUACCCAAGTT against Sox15 | inactive: -0.806
GGAUCGUUUAUGAAUCUGATT against Slitrk6 | inactive: -0.891
CCUAGAGUGAGAUAGCCCUTT against Igfbpl1 | inactive: 0.185
CGAAAGCUAAACUAAAAGATT against Stimate | inactive: 0.539
GGAAGUGUAUGUUAUUUCATT against B230325K18Rik | inactive: 0.173
GGUUCUACCUUUCAUGAGUTT against Gm11733 | inactive: 0.803
GCAACCCAUAGUCUACCCUTT against Hoxc4 | inactive: 0.233
GGAGCGUAGAUAACUUAUCTT against Itprid2 | inactive: -0.0474

Looked up above.
For z-score, CCUAGAGUGAGAUAGCCCUTT against Igfbpl1 reads inactive: 0.185
For z-score, GGUUUAGGCAACUAAGUUGTT against Stat5a reads inactive: 0.426
For z-score, GGUGUUCCAGUUACCUGAGTT against Klhl26 reads inactive: -0.0813
For z-score, GGAGCGUAGAUAACUUAUCTT against Itprid2 reads inactive: -0.0474
For z-score, CGGCAAGUAUGAUCUGGACTT against Eno3 reads inactive: 1.69

(cont.)

Sequence | z-score
GGAAGAGCCAGUGGUAUAATT against Ccdc171 | inactive: 0.164
GGGAGAACCAGCACAACAUTT against Cavin2 | inactive: -1.8
GGAGAAAAUUGAAGAGUAUTT against Gtf2e2 | inactive: -1.56
GGACUAUUCAAACCUAUAUTT against Hsf3 | inactive: 0.155
GGUAAACCUGCCAAUUUUGTT against Ovch2 | inactive: 1.54
CCCUGUGCGAGAAUAGCAUTT against Pigh | inactive: -1.31
CCAGCAAGUAAAACAAGCUTT against Olfr803 | inactive: 0.998
GGGACUCGUGCAACAUUAUTT against Tmigd3 | inactive: -1.21
CCUUCAAGAUAAAUUGACATT against Tango6 | inactive: 0.755
GGAAGAUCACAGAAUUCUCTT against Aoc1 | inactive: 0.592
GGGCAAAAACAAGCAAAAATT against Lima1 | inactive: -0.849
GGAAAUUGAACAGCGAUUATT against Gatad2b | inactive: 0.871
GGCAAAGUUAUCAAGGAGATT against Slc17a6 | inactive: -0.00335
GGGCAAAGUGAUUGGCAUATT against Aifm2 | inactive: 0.481
GCCACUCUAGCUCGUAUUGTT against Des | inactive: 0.896
GGCUAAAAUAAAGAAGAAGTT against Cfap100 | inactive: 0.00546
CGAGCUUGUUUUUGGAAGUTT against Uts2b | inactive: 1.23
CCACACUUAGUCAUUUUCUTT against Paral1 | active: -2.06
GGACAUACCCUUAACCAAATT against Plekhb1 | inactive: -1.21
GCAAAUCCGAAUGAACCUUTT against Cabp5 | inactive: -0.159
GGCAGAACGGAAUAAAAUGTT against Stag2 | active: -3.03
GGCAGAAUGAUGAACUGUUTT against A830073O21Rik | inactive: -1.82

Reference: PubChem BioAssay AID1508600 (Functional Genomics Laboratory (NCATS/FGL), 2020)
